No constants are given. Whether binding was seen depends on the method and setting. Binding seen in cells or lysates may run through a third protein. Some entries that bind do so weakly or less than the wild type.

Amino acid sequences for entries named in this document (tags omitted).
UniProt P61586: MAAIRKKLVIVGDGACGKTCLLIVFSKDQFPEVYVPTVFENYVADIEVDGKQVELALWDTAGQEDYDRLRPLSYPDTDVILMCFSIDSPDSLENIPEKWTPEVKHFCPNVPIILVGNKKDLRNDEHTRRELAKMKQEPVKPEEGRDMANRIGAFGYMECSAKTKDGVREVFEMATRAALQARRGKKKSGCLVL

Three molecules from paper PMC8965026 can be followed below.

The target of assay [1] is phosphorylated SLP65, endogenous human (human (endogenous in DG75EB/HA-RhoA)) (UniProt Q8WV28). Briefly: proximity ligation; in situ PLA (Duolink) in DG75EB/HA-RhoA cells, unstimulated or stimulated with anti-IgM F(ab)'2 (3 and 5 min); controls with secondary antibodies only.
Assay [2] concerns the target SLP65 (Src homology containing leucocyte protein of 65 kDa), endogenous human (human (endogenous in DG75EB/HA-RhoA and peripheral blood B cells)) (UniProt Q8WV28). Described as above.
The target is the same in assay [3]. Briefly: co-IP; endogenous proteins in lysate of DG75EB/HA-RhoA cells, serum starved, stimulated 0, 1, 3, 5 and 10 min with 10 µg/ml anti-human IgM F(ab)'2 at 37°C; IP with anti-SLP65 (anti-BLNK) antibody and Protein G Sepharose; lysis buffer 1 mM EDTA, 50 mM Tris pH 7.5, 150 mM NaCl, 0.1% Triton X-100; immunoblot.
Assay [4] concerns the target T1, SLP65, endogenous mouse (mouse (endogenous in primary B cells)) (UniProt Q9QUN3).
T1 sequence: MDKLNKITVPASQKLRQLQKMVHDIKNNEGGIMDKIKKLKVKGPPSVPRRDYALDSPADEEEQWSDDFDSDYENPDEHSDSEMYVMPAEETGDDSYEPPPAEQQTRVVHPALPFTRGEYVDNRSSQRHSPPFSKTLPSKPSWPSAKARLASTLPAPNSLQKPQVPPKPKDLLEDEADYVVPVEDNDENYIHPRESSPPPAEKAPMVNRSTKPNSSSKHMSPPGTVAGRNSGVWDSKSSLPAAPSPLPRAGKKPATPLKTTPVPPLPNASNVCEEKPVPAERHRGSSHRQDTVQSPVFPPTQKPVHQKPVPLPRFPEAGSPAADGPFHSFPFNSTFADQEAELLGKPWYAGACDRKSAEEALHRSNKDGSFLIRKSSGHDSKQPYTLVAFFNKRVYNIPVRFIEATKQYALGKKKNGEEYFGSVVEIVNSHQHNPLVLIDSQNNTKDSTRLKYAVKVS
The experiment in a line: proximity ligation; in situ PLA (Duolink) in primary B cells isolated by CD19 magnetic sorting: murine bone marrow and spleen, human peripheral blood.

“HA tagged RHOA in DG75EB/HA-RhoA cells (from UniProt P61586 1-193)”: the binding entry in assay [1] and in assay [2] was “binds” each time.

B1: PLCγ2, endogenous human (protein, UniProt P16885 1-1265)
chain: MSTTVNVDSLAEYEKSQIKRALELGTVMTVFSFRKSTPERRTVQVIMETRQVAWSKTADKIEGFLDIMEIKEIRPGKNSKDFERAKAVRQKEDCCFTILYGTQFVLSTLSLAADSKEDAVNWLSGLKILHQEAMNASTPTIIESWLRKQIYSVDQTRRNSISLRELKTILPLINFKVSSAKFLKDKFVEIGAHKDELSFEQFHLFYKKLMFEQQKSILDEFKKDSSVFILGNTDRPDASAVYLHDFQRFLIHEQQEHWAQDLNKVRERMTKFIDDTMRETAEPFLFVDEFLTYLFSRENSIWDEKYDAVDMQDMNNPLSHYWISSSHNTYLTGDQLRSESSPEAYIRCLRMGCRCIELDCWDGPDGKPVIYHGWTRTTKIKFDDVVQAIKDHAFVTSSFPVILSIEEHCSVEQQRHMAKAFKEVFGDLLLTKPTEASADQLPSPSQLREKIIIKHKKLGPRGDVDVNMEDKKDEHKQQGELYMWDSIDQKWTRHYCAIADAKLSFSDDIEQTMEEEVPQDIPPTELHFGEKWFHKKVEKRTSAEKLLQEYCMETGGKDGTFLVRESETFPNDYTLSFWRSGRVQHCRIRSTMEGGTLKYYLTDNLTFSSIYALIQHYRETHLRCAEFELRLTDPVPNPNPHESKPWYYDSLSRGEAEDMLMRIPRDGAFLIRKREGSDSYAITFRARGKVKHCRINRDGRHFVLGTSAYFESLVELVSYYEKHSLYRKMRLRYPVTPELLERYNMERDINSLYDVSRMYVDPSEINPSMPQRTVKALYDYKAKRSDELSFCRGALIHNVSKEPGGWWKGDYGTRIQQYFPSNYVEDISTADFEELEKQIIEDNPLGSLCRGILDLNTYNVVKAPQGKNQKSFVFILEPKQQGDPPVEFATDRVEELFEWFQSIREITWKIDTKENNMKYWEKNQSIAIELSDLVVYCKPTSKTKDNLENPDFREIRSFVETKADSIIRQKPVDLLKYNQKGLTRVYPKGQRVDSSNYDPFRLWLCGSQMVALNFQTADKYMQMNHALFSLNGRTGYVLQPESMRTEKYDPMPPESQRKILMTLTVKVLGARHLPKLGRSIACPFVEVEICGAEYDNNKFKTTVVNDNGLSPIWAPTQEKVTFEIYDPNLAFLRFVVYEEDMFSDPNFLAHATYPIKAVKSGFRSVPLKNGYSEDIELASLLVFCEMRPVLESEEELYSSCRQLRRRQEELNNQLFLYDTHQNLRNANRDALVKEFSVNENQLQLYQEKCNKRLREKRVSNSKFYS
As for B1, the binding entry in assay [3] was “binds”.

B2: GEF-H1, endogenous mouse (protein, UniProt Q60875 1-985)
chain: MSRIESLTRARIDRSKEQATKTREKEKMKEAKDARYTNGHLFTTISVSGMTMCYACNKSITAKEALICPTCNVTIHNRCKDTLANCTKVKQKQQKAALLRNNTALQSVSLRSKTTTRERPTSAIYPSDSFRQSLLGSRRGLSSLSLAKSVSTTNIAGHFNDESPLGLRQILSQSTDSLNMRNRTLSVESLIDEGVEVFYNELMSDFEMDEKDFEADSWSLAVDSSFLQQHKKEVMKKQDVIYELIQTELHHVRTLKIMTRLFRTGMLEELQMEPEVVQGLFPCVDELSDIHTRFLNQLLERRRQALCPGSTRNFVIHRLGDLLISQFSGSNAEQMRKTYSEFCSRHTKALKLYKELYARDKRFQQFIRKMTRSAVLKRHGVQECILLVTQRITKYPVLINRILQNSHGVEEEYQDLASALGLVKELLSNVDQDVHELEKEARLQEIYNRMDPRAQTPVPGKGPFGRDELLRRKLIHEGCLLWKTATGRFKDVLLLLMTDVLVFLQEKDQKYIFTSLDKPSVVSLQNLIVRDIANQAKGMFLISSGPPEMYEVHAASRDDRTTWIRVIQQSVRLCPSREDFPLIETEDKAYLRRIKTKLQQKNQALVELLQKNVELFAEMVHFQALKAGFVGMPPPALPRGLFRLESFESLRGERLLKDALREVEGLKDLLLGPCVDLPMTSREPALPLDSDSGSCPGVTANGEARTFNGSIELCRADSDSSQKDRNGNQLRSPQEEVLQPLINLYGLLHGLQAVVVQQERLMEALFPEGPERWEKLSRANSRDGEAGRAAVASVTPEKQATELALLQRQHTLLQEELRRCQRLGEERATEAGSLEARLRESEQARALLEREAEEIRRQLAALGQNEPLPAEAPWARRPLDPRRRSLPAGDALYLSFNPPQPSRGHDRLDLPVTVRSLHRPFDDREAQELGSPEDRLQDSSDPDTGSEEEVSSRLSPPHSPRDFTRMQDIPEETESRDGEPTASES
With B2, the binding entry in assay [4] is “binds”.
